This note sets out measurements from PubChem BioAssay AID248 (DTP/NCI, 2004).

SMILES strings stand for the structures. The list is a part of this screen's results and no random one: it covers a few groups of compounds. Not every dose and run of a compound is shown. T/C is the treated group as % of the vehicle group. Some entries give survivors of the animals treated and no T/C: the source holds a T/C of zero for them, seemingly a mark for toxic or unscored doses. Some survivor counts are full or nearly so, which does not show that the dose was tolerated: survival well below the control is almost never listed, so the zero probably covers shortened survival too. Counts of survivors are from the toxicity check (mostly the fifth day) where no day follows; animals may have died later. Schedule codes are those of the source, taken here to give the interval after Q, in days (D) or hours (H), and the number of doses after X. Where survival is the endpoint, this PubChem deposit counts one and a half times the control or more as active, and values a quarter to a half above the control carry no call in these data; other NCI protocols may use other cut-offs. Some T/C values are marked as having no survivor count here; that says nothing about deaths at the dose. Some entries were tested several times; the values are given in rising order. Some schedules carry Z or #; the key to these is not given. Some T/C values are followed by the survivors on the day toxicity was checked, most often the fifth; where neither a count nor a note follows, no animal had died by that day.

The test deals with L1210 leukemia ip in BDF1 mice, survival T/C. As to the kind of experiment: NCI In Vivo Anticancer Drug Screen. Data for tumor model L1210 Leukemia (intraperitoneal) in B6D2F1 (BDF1) mice. To be noted: T/C endpoint: mean survival time, higher T/C = longer survival.
Setting [1] is: dose: 50.0 mg/kg/injection, schedule: Q04DX002 (ip), vehicle: saline with Tween-80.
Where [2] appears, read: dose: 100.0 mg/kg/injection, schedule: Q04DX002 (ip), vehicle: saline with Tween-80.
[3] abbreviates: dose: 200.0 mg/kg/injection, schedule: Q04DX002 (ip), vehicle: saline with Tween-80.
Setting [4] is: dose: 100.0 mg/kg/injection, schedule: Q01DX001 (ip), vehicle: saline.
[5] abbreviates: dose: 200.0 mg/kg/injection, schedule: Q01DX001 (ip), vehicle: saline.
Setting [6] is: dose: 400.0 mg/kg/injection, schedule: Q01DX001 (ip), vehicle: saline.
Setting [7] is: dose: 100.0 mg/kg/injection, schedule: Q04DX003 (ip), vehicle: Klucel (hydroxypropylcellulose) (HPC).
The mark [8] stands for this setting: dose: 200.0 mg/kg/injection, schedule: Q04DX003 (ip), vehicle: Klucel (hydroxypropylcellulose) (HPC).
The mark [9] stands for this setting: dose: 400.0 mg/kg/injection, schedule: Q04DX003 (ip), vehicle: Klucel (hydroxypropylcellulose) (HPC).

On to `CN(CCCl)/N=N/c1nc[nH]c1C(N)=O`, for which the T/C is, setting by setting: (dose: 4.4 mg/kg/injection, schedule: Q01DX009 (ip), vehicle: saline with Tween-80) 104 % of control; (dose: 6.6 mg/kg/injection, schedule: Q01DX009 (ip), vehicle: saline with Tween-80) 113 % of control; (dose: 10.0 mg/kg/injection, schedule: Q01DX009 (ip), vehicle: saline with Tween-80) 119 % of control; (dose: 12.5 mg/kg/injection, schedule: Q04DX002 (ip), vehicle: saline with Tween-80) 103 % of control; (dose: 15.0 mg/kg/injection, schedule: Q01DX009 (ip), vehicle: saline with Tween-80) 136 % of control; (dose: 22.5 mg/kg/injection, schedule: Q01DX009 (ip), vehicle: saline with Tween-80) 148 % of control. Besides, the T/C was 114 % of control (dose: 25.0 mg/kg/injection, schedule: Q04DX002 (ip), vehicle: saline with Tween-80); 106 % of control (dose: 44.0 mg/kg/injection, schedule: Q01DX001 (ip), vehicle: saline with Tween-80); 142 % of control (dose: 44.0 mg/kg/injection, schedule: Q04DX003 (ip), vehicle: saline with Tween-80); 133 % of control under setting [1]; 114 % of control (dose: 66.0 mg/kg/injection, schedule: Q01DX001 (ip), vehicle: saline with Tween-80); 168 % of control (dose: 66.0 mg/kg/injection, schedule: Q04DX003 (ip), vehicle: saline with Tween-80). Also, the T/C by setting is: (dose: 100.0 mg/kg/injection, schedule: Q01DX001 (ip), vehicle: saline with Tween-80) 128 % of control; under setting [2], 188 % of control; (dose: 100.0 mg/kg/injection, schedule: Q04DX003 (ip), vehicle: saline with Tween-80) 227 % of control; (dose: 150.0 mg/kg/injection, schedule: Q01DX001 (ip), vehicle: saline with Tween-80) 159 % of control; (dose: 150.0 mg/kg/injection, schedule: Q04DX003 (ip), vehicle: saline with Tween-80) 209 % of control; under setting [3], 89 % of control. Moreover, the T/C (dose: 225.0 mg/kg/injection, schedule: Q01DX001 (ip), vehicle: saline with Tween-80) was 164 % of control. Also, the survivor count (dose: 225.0 mg/kg/injection, schedule: Q04DX003 (ip), vehicle: saline with Tween-80) is given as 10 of 10 and the survivor count (dose: 400.0 mg/kg/injection, schedule: Q04DX002 (ip), vehicle: saline with Tween-80) is given as 3 of 3.

Turning to `COC1OC(CNCCBr)C2OC(C)(C)OC12` (configuration not stated), the T/C is, setting by setting: (dose: 2.25 mg/kg/injection, schedule: Q01DX009 (ip), vehicle: saline) 98 % of control; (dose: 4.5 mg/kg/injection, schedule: Q01DX009 (ip), vehicle: saline) 93 % of control; (dose: 9.0 mg/kg/injection, schedule: Q01DX009 (ip), vehicle: saline) 94 % of control; (dose: 18.0 mg/kg/injection, schedule: Q01DX009 (ip), vehicle: saline) 105 % of control; (dose: 36.0 mg/kg/injection, schedule: Q01DX009 (ip), vehicle: saline) 137 % of control; (dose: 50.0 mg/kg/injection, schedule: Q01DX001 (ip), vehicle: saline) 124 % of control. Besides, the T/C by setting is: under setting [4], 125 % of control; under setting [5], 124 % of control [5 of 6 alive]; under setting [6], 96 % of control.

On to `Cc1c(F)c(-c2c(F)c(C)c([N+](=O)[O-])c(C)c2[N+](=O)[O-])c([N+](=O)[O-])c(C)c1[N+](=O)[O-]`, for which the T/C is, setting by setting: (dose: 100.0 mg/kg/injection, schedule: Q01DX001 (ip), vehicle: Klucel (hydroxypropylcellulose) (HPC)) 100 % of control; under setting [7], 101 % of control; (dose: 200.0 mg/kg/injection, schedule: Q01DX001 (ip), vehicle: Klucel (hydroxypropylcellulose) (HPC)) 97 % of control; under setting [8], 90 % of control; (dose: 400.0 mg/kg/injection, schedule: Q01DX001 (ip), vehicle: Klucel (hydroxypropylcellulose) (HPC)) 100 % of control; under setting [9], 87 % of control.

For `CC(=O)NCCCCOc1ccc(N)cc1`, the T/C runs as follows: under setting [7], 106 % of control [survivor count not shown]; under setting [8], 98 % of control [survivor count not shown]; under setting [9], 89 % of control [survivor count not shown].

In the case of `O=C1OCCN1[N+](=O)[O-]`, the T/C under setting [1] is 100 [survivor count not shown] and 102 % of control [survivor count not shown]; the T/C under setting [2] was 96 [survivor count not shown], 101 [survivor count not shown], 104 % of control [survivor count not shown]; the T/C under setting [3] is 100 [survivor count not shown], 112 [survivor count not shown], 130 % of control [survivor count not shown].

Take `CCOP(=O)(CC)OCCCCOP(=O)(CC)OCC` (configuration not stated): the T/C runs as follows: (dose: 4.0 mg/kg/injection, schedule: Q01DX Z (ip), vehicle: saline) 96 % of control [survivor count not shown]; (dose: 8.0 mg/kg/injection, schedule: Q01DX Z (ip), vehicle: saline) 96 % of control [survivor count not shown]; (dose: 16.0 mg/kg/injection, schedule: Q01DX Z (ip), vehicle: saline) 88 % of control [survivor count not shown].

With `CCOC(=O)NP(=O)(NC(=O)NOC)NC(=O)OC(CCl)CCl` (configuration not stated), the T/C under setting [4] was 96 % of control and the T/C under setting [5] is 98 % of control [4 of 6 alive]. In addition, the survivor count under setting [6] is reported as 0 of 6.

For `CCOC(=O)NP(=O)(Nc1ccccn1)Nc1ccccn1`, the T/C by setting is: (dose: 50.0 mg/kg/injection, schedule: Q01DX001 (ip), vehicle: carboxymethylcellulose (CMC)) 104 % of control; (dose: 100.0 mg/kg/injection, schedule: Q01DX001 (ip), vehicle: carboxymethylcellulose (CMC)) 110 % of control; (dose: 200.0 mg/kg/injection, schedule: Q01DX001 (ip), vehicle: carboxymethylcellulose (CMC)) 98 % of control; (dose: 400.0 mg/kg/injection, schedule: Q01DX001 (ip), vehicle: carboxymethylcellulose (CMC)) 101 % of control.
